Source: publication PMC6450568 (Bioorganic & medicinal chemistry letters, 2019)

How the values were obtained:
[1] = target: T1, native MDH (malate dehydrogenase) reporter enzyme (Sus scrofa, UniProt P00346); assay: Native MDH enzymatic reporter counter-screen; type: biochemical
T1 sequence (P00346 25-338): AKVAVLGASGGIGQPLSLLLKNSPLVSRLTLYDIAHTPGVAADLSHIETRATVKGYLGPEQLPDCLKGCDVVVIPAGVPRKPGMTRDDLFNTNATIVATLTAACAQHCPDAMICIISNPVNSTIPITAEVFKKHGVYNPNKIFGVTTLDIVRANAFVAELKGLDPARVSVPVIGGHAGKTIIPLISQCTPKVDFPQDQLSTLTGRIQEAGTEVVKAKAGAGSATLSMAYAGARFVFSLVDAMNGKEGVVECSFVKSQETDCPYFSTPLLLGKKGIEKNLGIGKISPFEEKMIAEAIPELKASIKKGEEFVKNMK

[2] = target: T2, native Rho (rhodanese) reporter enzyme (Bos taurus, UniProt P00586); assay: Native Rho enzymatic reporter counter-screen; type: biochemical
T2 sequence (P00586 2-297 limits assumed): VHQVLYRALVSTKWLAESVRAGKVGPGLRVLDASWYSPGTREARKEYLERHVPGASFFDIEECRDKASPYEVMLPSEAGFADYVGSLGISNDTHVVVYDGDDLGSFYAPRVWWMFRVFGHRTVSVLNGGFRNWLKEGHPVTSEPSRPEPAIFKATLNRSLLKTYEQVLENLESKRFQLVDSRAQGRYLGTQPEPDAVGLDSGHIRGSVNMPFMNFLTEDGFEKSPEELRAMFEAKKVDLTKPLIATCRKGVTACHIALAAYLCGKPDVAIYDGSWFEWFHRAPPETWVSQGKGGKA

SMILES | IC50 [1] [µM] | IC50 [2] [µM]
Oc1ccc2c3c1O[C@H]1[C@@H](O)CC[C@@]4(O)[C@@H](C2)N(CC2CCC2)CC[C@]314 [Compound 58, Nalbuphine] | > 63 | –
CCCCCCCCCCCCCCCC[n+]1ccccc1 [Compound 8, Cetylpyridinium chloride] | – | > 100
CC(C)(C)CC(C)(C)c1ccc(OCCOCC[N+](C)(C)Cc2ccccc2)cc1 [Compound 39, Benzethonium chloride] | > 63 | –
